The text below walks through data of patent publication US20030180947A1, “Circadian control of stem/progenitor cell self-renewal and differentiation and of clock controlled gene expression” (priority 2001, published 2003).

Amino acid sequences for entries named in this document (tags omitted). A change or cut given only in a name is not applied to a line headed by its entry.
UniProt P04386: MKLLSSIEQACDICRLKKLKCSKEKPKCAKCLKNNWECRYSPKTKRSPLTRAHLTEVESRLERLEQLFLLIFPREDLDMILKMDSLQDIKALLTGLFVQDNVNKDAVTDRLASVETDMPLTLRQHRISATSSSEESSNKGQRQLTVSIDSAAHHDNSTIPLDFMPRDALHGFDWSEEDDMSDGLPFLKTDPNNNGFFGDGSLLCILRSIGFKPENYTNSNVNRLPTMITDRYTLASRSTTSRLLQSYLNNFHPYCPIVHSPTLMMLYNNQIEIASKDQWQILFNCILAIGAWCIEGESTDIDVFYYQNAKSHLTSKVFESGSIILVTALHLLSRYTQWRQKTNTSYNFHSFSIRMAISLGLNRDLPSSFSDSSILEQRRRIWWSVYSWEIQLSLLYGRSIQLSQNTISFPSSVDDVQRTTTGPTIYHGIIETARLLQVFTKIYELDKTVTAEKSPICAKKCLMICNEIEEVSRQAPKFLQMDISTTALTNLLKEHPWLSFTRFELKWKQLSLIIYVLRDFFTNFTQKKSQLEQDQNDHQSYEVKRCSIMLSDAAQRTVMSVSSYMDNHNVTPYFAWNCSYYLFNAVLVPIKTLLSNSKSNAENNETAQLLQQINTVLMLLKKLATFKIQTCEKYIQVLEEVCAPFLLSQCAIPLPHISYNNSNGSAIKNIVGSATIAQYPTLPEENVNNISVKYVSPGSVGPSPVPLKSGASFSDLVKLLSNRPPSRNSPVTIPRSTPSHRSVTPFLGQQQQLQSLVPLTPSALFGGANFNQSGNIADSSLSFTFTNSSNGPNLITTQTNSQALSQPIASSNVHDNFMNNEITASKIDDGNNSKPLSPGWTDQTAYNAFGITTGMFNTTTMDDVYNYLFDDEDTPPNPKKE
UniProt Q7TSJ6: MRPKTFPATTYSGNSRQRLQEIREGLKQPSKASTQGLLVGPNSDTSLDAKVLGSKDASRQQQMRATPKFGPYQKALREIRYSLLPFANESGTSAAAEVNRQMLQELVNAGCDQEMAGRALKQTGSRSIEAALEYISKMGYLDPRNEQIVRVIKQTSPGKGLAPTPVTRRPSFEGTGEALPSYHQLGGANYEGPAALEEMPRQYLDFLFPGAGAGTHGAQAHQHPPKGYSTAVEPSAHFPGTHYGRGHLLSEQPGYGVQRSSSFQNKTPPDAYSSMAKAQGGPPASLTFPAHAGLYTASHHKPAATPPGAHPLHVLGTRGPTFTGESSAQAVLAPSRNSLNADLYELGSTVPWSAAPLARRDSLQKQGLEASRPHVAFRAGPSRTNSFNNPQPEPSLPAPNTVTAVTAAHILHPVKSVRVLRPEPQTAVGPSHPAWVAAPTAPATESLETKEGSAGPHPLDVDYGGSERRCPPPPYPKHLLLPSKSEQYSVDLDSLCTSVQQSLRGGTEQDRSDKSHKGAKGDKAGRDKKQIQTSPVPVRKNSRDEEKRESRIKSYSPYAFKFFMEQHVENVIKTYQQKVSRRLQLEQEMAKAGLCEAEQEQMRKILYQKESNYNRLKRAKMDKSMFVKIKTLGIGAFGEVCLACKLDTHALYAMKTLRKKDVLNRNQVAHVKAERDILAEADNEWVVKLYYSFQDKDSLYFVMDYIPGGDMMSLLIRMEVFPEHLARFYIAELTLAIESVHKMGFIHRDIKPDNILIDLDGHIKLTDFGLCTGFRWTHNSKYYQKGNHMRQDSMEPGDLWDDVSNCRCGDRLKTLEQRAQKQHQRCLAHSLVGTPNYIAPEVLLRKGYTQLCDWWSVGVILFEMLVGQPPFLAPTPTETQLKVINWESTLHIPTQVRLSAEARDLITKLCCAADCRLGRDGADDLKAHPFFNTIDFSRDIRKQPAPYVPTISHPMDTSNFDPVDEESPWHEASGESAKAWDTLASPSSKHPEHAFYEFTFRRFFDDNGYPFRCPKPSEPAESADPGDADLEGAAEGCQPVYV

These are yes or no findings as the source states them, for the method shown. Some entries that bind do so weakly or less than the wild type. Sequences can lack the tags named with a protein.

Common to all, as to test: yeast two-hybrid assay
Test [1] has as its target T1, mRBT1 fused to the GAL4 activation domain (pGADT7-mRBT1) (murine) (UniProt Q9ERC3).
T1 sequence (looked up): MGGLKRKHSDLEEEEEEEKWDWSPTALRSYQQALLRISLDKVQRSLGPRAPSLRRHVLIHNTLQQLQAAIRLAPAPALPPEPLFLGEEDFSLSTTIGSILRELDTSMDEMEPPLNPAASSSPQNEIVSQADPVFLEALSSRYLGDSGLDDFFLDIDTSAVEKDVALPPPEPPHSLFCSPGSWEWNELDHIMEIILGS

In test [2] the target is mLATS2 fused to the GAL4 DNA binding domain (pGBKT7-mLATS2) (mouse) (UniProt P04386+Q7TSJ6).
Test [3] concerns the target mLATS2N373 fused to the GAL4 DNA binding domain (pGBKT7-mLATS2N373) (mouse) (UniProt P04386+Q7TSJ6).

For the molecule “mLATS2 fused to the GAL4 DNA binding domain (pGBKT7-mLATS2) (from UniProt P04386 1-147; Q7TSJ6 1-1042)”, in test [1], the binding result was “binds”.

For the molecule “mLATS2N373 fused to the GAL4 DNA binding domain (pGBKT7-mLATS2N373) (from UniProt P04386 1-147; Q7TSJ6 1-373)”, in test [1], the binding result was “binds”.

B1: mRBT1N121 fused to the GAL4 activation domain (pGADT7-mRBT1N121) (protein, murine, UniProt Q9ERC3 1-121, looked up, not shown: large carriers)
chain: MGGLKRKHSDLEEEEEEEKWDWSPTALRSYQQALLRISLDKVQRSLGPRAPSLRRHVLIHNTLQQLQAAIRLAPAPALPPEPLFLGEEDFSLSTTIGSILRELDTSMDEMEPPLNPAASSS
Consider B1, for which the binding entry in test [2] and in test [3] was “binds” in each case.

B2: mRBT1 fused to the GAL4 activation domain (pGADT7-mRBT1) (protein, murine, UniProt Q9ERC3 1-197, looked up, not shown: large carriers)
chain: MGGLKRKHSDLEEEEEEEKWDWSPTALRSYQQALLRISLDKVQRSLGPRAPSLRRHVLIHNTLQQLQAAIRLAPAPALPPEPLFLGEEDFSLSTTIGSILRELDTSMDEMEPPLNPAASSSPQNEIVSQADPVFLEALSSRYLGDSGLDDFFLDIDTSAVEKDVALPPPEPPHSLFCSPGSWEWNELDHIMEIILGS
Turning to B2, the binding result in test [2] is on record as “binds”.
